From article PMC13128448
Read-outs that look alike come from different tables or passages of the source. No constants are given. Whether binding was seen depends on the method and setting. In cells and extracts the contact can be indirect. A yes stands for co-enrichment or nearness to the bait. Other partners may have been found. Values belong to the molecule of their own block, whether it stands above or below them.

The chains behind the UniProt entries cited, without tags or fusion partners.
UniProt Q7L5N1: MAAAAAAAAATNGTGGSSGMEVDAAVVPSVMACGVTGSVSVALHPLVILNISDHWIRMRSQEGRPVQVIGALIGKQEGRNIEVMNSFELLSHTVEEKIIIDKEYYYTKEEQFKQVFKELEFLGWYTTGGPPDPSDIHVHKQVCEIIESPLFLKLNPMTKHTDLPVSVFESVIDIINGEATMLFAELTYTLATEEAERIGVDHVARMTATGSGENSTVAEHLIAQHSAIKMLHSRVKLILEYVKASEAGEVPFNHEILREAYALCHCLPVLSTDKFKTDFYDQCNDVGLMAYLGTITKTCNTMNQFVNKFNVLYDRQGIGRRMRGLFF
UniProt P61201: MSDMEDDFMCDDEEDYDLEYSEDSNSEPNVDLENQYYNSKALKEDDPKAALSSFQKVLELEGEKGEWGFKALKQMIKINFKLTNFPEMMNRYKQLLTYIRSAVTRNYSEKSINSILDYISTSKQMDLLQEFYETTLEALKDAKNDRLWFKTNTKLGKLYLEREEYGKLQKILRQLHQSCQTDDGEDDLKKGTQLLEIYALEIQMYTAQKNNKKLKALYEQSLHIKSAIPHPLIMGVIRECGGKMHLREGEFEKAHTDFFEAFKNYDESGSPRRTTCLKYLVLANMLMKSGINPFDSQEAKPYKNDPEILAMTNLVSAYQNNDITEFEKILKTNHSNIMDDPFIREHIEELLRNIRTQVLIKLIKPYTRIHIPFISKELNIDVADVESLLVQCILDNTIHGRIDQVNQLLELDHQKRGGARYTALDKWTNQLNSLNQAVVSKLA
UniProt Q13619: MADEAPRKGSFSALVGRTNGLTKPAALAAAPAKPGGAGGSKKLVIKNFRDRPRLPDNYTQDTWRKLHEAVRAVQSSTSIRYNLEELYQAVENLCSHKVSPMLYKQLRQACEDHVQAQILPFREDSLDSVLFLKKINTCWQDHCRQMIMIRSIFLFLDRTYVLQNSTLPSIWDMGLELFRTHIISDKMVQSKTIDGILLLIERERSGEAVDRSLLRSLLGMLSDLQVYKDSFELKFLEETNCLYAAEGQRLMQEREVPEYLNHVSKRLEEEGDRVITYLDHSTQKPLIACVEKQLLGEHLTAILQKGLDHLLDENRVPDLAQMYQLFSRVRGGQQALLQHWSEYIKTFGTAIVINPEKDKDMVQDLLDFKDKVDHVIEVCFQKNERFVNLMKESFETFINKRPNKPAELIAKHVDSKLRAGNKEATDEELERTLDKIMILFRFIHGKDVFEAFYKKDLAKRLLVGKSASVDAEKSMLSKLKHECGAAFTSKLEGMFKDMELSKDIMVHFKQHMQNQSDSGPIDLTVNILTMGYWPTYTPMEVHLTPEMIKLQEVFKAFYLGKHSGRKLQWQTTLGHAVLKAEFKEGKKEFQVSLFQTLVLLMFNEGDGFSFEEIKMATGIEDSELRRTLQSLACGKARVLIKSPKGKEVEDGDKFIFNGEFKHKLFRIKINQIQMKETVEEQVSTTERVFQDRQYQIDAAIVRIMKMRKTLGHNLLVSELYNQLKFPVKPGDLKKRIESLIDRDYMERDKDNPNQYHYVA
UniProt Q16531: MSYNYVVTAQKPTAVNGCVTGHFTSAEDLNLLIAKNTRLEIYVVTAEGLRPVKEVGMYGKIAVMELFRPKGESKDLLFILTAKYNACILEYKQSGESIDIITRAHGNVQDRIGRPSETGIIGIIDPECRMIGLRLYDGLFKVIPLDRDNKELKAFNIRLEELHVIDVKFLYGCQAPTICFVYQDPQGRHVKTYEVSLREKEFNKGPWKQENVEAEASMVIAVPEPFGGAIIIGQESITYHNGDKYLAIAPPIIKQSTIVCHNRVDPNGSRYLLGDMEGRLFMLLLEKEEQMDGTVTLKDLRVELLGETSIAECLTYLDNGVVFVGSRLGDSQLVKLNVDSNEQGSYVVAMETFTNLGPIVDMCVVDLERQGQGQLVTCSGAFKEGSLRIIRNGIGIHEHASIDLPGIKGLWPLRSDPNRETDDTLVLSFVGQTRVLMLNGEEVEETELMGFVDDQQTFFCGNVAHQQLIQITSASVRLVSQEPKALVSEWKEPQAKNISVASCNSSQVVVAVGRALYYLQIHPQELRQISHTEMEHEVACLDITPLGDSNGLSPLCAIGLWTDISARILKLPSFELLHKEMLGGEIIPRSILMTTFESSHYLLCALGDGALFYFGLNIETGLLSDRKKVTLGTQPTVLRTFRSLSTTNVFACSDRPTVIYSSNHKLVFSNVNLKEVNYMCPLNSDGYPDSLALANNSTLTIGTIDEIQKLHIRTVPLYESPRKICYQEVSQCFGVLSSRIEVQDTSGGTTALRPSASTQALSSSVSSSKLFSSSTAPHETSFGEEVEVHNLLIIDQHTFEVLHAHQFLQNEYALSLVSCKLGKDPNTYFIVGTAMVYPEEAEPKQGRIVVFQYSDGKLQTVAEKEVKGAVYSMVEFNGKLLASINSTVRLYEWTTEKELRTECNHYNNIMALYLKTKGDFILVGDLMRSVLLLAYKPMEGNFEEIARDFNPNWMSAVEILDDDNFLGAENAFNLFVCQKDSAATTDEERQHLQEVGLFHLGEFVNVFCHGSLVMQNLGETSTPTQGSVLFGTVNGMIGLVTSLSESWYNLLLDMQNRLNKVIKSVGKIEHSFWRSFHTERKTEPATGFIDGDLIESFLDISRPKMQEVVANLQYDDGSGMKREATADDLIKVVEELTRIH
UniProt Q92466: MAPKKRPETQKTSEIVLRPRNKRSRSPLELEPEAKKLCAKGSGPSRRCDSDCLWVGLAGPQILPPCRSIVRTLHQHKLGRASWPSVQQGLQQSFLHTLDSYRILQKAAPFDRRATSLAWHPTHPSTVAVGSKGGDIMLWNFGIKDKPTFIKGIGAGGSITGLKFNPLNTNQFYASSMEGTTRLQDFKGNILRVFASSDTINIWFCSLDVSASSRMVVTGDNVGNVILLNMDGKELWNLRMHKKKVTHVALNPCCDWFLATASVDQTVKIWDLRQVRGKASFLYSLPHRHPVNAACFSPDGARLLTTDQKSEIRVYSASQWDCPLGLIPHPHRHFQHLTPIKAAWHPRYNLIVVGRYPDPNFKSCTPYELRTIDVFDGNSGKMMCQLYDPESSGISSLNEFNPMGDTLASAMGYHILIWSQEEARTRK
UniProt Q9UBF6: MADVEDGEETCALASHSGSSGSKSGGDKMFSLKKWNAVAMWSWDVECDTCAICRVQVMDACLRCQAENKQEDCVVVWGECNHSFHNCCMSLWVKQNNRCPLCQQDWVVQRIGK

Experiments:
Test in all cases: affinity purification with mass spectrometry; HEK293T cells expressing HBTH-tagged CSN2 or CSN6, 1 μM CSN5i-3 or DMSO for 16 h; in-cell cross-linking with […] formaldehyde; streptavidin resin; DDA and DIA LC MS/MS
[1] = molecular target: HBTH-tagged CSN6 (human) (UniProt Q7L5N1)
[2] = molecular target: HBTH-tagged CSN2 (human) (UniProt P61201)
[3] = molecular target: HBTH-tagged CSN2 (human) (UniProt P61201); remark: listed apart in the source
[4] = molecular target: HBTH-tagged CSN6 (human) (UniProt Q7L5N1); remark: listed apart in the source

Molecule: CUL4A, endogenous (from UniProt Q13619 1-759)
binding [1]: binds

Molecule: DDB1, endogenous (from UniProt Q16531 1-1140)
binding [1]: binds

Molecule: DDB2, endogenous (from UniProt Q92466 1-427)
binding [2]: binds
binding [1]: binds

Molecule: RBX2, endogenous (from UniProt Q9UBF6 1-113)
binding [2]: binds
binding [1]: binds

Second part, the molecule after the results:

binding [3]: binds
binding [4]: binds
B1: DCAF4, endogenous (protein, UniProt Q8WV16 1-495)
chain: MNKSRWQSRRRHGRRSHQQNPWFRLRDSEDRSDSRAAQPAHDSGHGDDESPSTSSGTAGTSSVPELPGFYFDPEKKRYFRLLPGHNNCNPLTKESIRQKEMESKRLRLLQEEDRRKKIARMGFNASSMLRKSQLGFLNVTNYCHLAHELRLSCMERKKVQIRSMDPSALASDRFNLILADTNSDRLFTVNDVKVGGSKYGIINLQSLKTPTLKVFMHENLYFTNRKVNSVCWASLNHLDSHILLCLMGLAETPGCATLLPASLFVNSHPGIDRPGMLCSFRIPGAWSCAWSLNIQANNCFSTGLSRRVLLTNVVTGHRQSFGTNSDVLAQQFALMAPLLFNGCRSGEIFAIDLRCGNQGKGWKATRLFHDSAVTSVRILQDEQYLMASDMAGKIKLWDLRTTKCVRQYEGHVNEYAYLPLHVHEEEGILVAVGQDCYTRIWSLHDARLLRTIPSPYPASKADIPSVAFSSRLGGSRGAPGLLMAVGQDLYCYSYS

binding [3]: binds
binding [4]: binds
B2: FBXL12, endogenous (protein, UniProt Q9NXK8 1-326)
chain: MATLVELPDSVLLEIFSYLPVRDRIRISRVCHRWKRLVDDRWLWRHVDLTLYTMRPKVMWHLLRRYMASRLHSLRMGGYLFSGSQAPQLSPALLRALGQKCPNLKRLCLHVADLSMVPITSLPSTLRTLELHSCEISMAWLHKQQDPTVLPLLECIVLDRVPAFRDEHLQGLTRFRALRSLVLGGTYRVTETGLDAGLQELSYLQRLEVLGCTLSADSTLLAISRHLRDVRKIRLTVRGLSAPGLAVLEGMPALESLCLQGPLVTPEMPSPTEILSSCLTMPKLRVLELQGLGWEGQEAEKILCKGLPHCMVIVRACPKESMDWWM
